Measured values from article PMC10284700.

Biological target: T1, entire extracellular domain of human αKlotho (residues Met1 to Ser981) (human) (UniProt Q9UEF7)
T1 sequence: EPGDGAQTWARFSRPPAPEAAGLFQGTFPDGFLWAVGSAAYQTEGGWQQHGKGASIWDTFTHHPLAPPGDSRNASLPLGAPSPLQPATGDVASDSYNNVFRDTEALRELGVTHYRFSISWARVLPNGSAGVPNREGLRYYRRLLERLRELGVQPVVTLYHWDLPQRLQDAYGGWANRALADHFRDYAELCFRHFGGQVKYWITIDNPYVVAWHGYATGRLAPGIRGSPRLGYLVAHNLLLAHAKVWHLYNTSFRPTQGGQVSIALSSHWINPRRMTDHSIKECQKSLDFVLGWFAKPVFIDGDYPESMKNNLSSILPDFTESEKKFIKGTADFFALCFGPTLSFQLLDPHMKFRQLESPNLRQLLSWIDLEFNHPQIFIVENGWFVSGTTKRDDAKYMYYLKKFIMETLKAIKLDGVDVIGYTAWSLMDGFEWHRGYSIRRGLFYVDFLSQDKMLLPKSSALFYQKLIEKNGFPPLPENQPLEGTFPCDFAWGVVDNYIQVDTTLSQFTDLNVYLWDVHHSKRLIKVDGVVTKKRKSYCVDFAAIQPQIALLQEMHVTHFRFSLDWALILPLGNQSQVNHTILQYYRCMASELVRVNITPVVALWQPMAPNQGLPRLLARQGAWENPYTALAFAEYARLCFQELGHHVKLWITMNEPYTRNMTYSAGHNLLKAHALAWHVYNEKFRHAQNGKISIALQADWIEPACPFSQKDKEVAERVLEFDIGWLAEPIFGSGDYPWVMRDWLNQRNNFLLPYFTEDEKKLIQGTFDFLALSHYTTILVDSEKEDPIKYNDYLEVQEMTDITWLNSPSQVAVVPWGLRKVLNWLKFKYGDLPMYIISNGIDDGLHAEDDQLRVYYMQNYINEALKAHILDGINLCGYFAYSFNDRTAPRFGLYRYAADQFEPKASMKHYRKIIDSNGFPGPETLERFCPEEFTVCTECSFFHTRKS
Assay: cryo-EM structure; FGF23, one FGFR ectodomain, αKlotho^ecto and heparin dodecasaccharide (HO12) mixed 1:1:1:1; complex isolated on Superdex 200 in 25 mM HEPES pH 7.5, 100 mM NaCl; peak fractions vitrified; both purified

| Substance | binding |
| --- | --- |
| extracellular ligand-binding region (D2–D3 region) of FGFR3c (residues Asp142 to Arg365) (human) (domain or fragment) | binds |
| extracellular ligand-binding region (D2–D3 region) of FGFR4 (residues Asp142 to Arg365) (human) (domain or fragment) | binds |

No constants are given. Whether binding was seen depends on the method and setting. Binding can be weak; no strength is given.
